The target of the series is His-AtSF1(1-562) (Arabidopsis thaliana) (UniProt Q9LU44). As to the kind of experiment: EMSA. Particulars: positive control; LightShift Chemiluminescent RNA EMSA kit, 23 C, 30 min, 8% native PAGE; salt and pH not stated; recombinant protein; residues 1-562; protein details: His; label: 3' biotin.

Sequences of proteins named here, by UniProt entry; tags and fusion partners are left off. Residues count along the entry.
UniProt Q9LU44, 1-562: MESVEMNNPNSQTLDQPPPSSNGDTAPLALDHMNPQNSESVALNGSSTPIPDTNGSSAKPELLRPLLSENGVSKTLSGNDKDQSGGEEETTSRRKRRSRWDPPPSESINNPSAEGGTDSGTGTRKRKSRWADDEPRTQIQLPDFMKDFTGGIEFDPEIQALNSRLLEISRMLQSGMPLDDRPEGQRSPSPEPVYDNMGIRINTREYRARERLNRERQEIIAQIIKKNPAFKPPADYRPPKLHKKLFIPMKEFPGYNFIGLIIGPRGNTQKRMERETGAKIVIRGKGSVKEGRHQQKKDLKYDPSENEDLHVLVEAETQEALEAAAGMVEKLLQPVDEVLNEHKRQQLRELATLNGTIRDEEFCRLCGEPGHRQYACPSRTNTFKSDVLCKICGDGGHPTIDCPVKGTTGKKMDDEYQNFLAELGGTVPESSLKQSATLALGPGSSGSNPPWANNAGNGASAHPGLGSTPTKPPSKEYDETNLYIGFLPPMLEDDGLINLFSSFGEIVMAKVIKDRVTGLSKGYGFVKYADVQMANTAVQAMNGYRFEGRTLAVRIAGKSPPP

The exact form of at least one protein or probe is not confirmed. At least one verdict rests on a figure or table, not on a statement of the authors.

Consider “UAUACUAACAAUUUUUUUUU [human BPS-Py 20-mer]”, for which the binding result is reported as “binds”.

(Values after paper PMC7735993.)
